Toxoplasma: 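Assay of Toxoplasma gondii numbers, read through their beta-galactosidase reporter with a colour substrate. Compounds at 10 µM. Higher reads as fewer parasites (inferred from which compounds were picked for retests). Size under these conditions: about 67,000 compounds, about 260 of them at 50% or above in at least one test.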
CoaBC: 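Coenzyme A biosynthesis protein CoaBC, Mycobacterium tuberculosis (UniProt P9WNZ1). Enzyme assay of CoaBC with a phosphate dye (Biomol Green) read at 650 nm. Compounds at 30 µM. Higher reads as stronger inhibition, judged from the few compounds that gave an IC50. Most strong results did not repeat in a second test. Of about 67,000 compounds tested this way, about 40 (0.06%) reached 50% or more in at least one test.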

By UniProt entry, the sequences of proteins in these tests, tags left out.
UniProt P9WNZ1, whole entry: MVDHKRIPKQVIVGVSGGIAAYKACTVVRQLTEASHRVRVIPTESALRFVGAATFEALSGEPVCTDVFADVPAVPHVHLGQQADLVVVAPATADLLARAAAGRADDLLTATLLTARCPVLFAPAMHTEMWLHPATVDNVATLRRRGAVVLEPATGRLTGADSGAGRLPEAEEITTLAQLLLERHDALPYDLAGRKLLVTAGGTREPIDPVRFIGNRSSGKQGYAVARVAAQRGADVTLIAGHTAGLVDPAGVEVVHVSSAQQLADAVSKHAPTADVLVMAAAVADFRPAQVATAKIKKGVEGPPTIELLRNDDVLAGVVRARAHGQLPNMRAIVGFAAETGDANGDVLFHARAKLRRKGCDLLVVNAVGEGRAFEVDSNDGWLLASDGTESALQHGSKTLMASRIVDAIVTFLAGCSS

Values are the deposited “Percent Effect”, in %.
How 0% and 100% were set is not recorded. Most values in the screen are low, and negative values occur.
The compounds are a random part of those screened.

With CC(C)N1CCc2c(CN(C)Cc3ccco3)cncc2C1 the screen gave CoaBC: 0.8883%.
With CCC(CC)N(Cc1ccc2c(c1)OCO2)C(=O)c1ccc(=O)n(C)c1 the screen gave Toxoplasma: 7.041%; CoaBC: -7.851%.
With Cl.NC(=O)COc1ccc(CNCc2cc(F)cc(F)c2)cc1 the screen gave Toxoplasma: -12.91%.
With O=C(O)C(F)(F)F.O=C1COC2(CCN(CC3CC3)CC2)CN1c1ccccc1 the screen gave Toxoplasma: -2.349%.
With CCCn1ncc(C(=O)NCc2n[nH]c3c2CCCCC3)c1C the screen gave Toxoplasma: -18.13%; CoaBC: 3.602%.
With Nc1nc2c(c(N3CCCC3)n1)CCN(Cc1ccccn1)CC2 the screen gave Toxoplasma: 3.308%; CoaBC: -17.74%.
With Fc1ccc(-c2cnc(CN3CCOC(Cn4cccn4)C3)o2)cc1 (stereo not shown) the screen gave Toxoplasma: -11.62%; CoaBC: -2.955%.
With O=C(O)C(F)(F)F.[H][C@@]12CCN(c3cccc(F)c3)C[C@@]1([H])O[C@@H](C(=O)N1CCCC1)C2 the screen gave Toxoplasma: -0.1666%.
With c1csc(CN2CCc3nc(N4CCOCC4)nc(NC4CC4)c3C2)n1 the screen gave Toxoplasma: 8.916%; CoaBC: -4%.
With CC(C)N(Cc1ccc(Cl)c(Cl)c1)C(=O)Cn1cncn1 the screen gave Toxoplasma: 10.34%; CoaBC: 5.66%.
With FC(F)(F)c1ccc(-c2cc(NC3CCNCC3)nc3[nH]ccc23)nc1 the screen gave Toxoplasma: -1.897%; CoaBC: 6.138%.
With CNC(=O)C1(C)CCCN(c2cnccn2)C1 (stereo not shown) the screen gave Toxoplasma: 11.06%; CoaBC: 1.112%.
With COc1ccc2cc(C3CN(C(=O)N(C)C)CCO3)ccc2c1 (stereo not shown) the screen gave Toxoplasma: -1.908%; CoaBC: 12.42%.
With [H][C@@]12CN(Cc3ccc(C)s3)C[C@]1([H])C(=O)N(CC1CCN(C)CC1)C2 the screen gave Toxoplasma: 5.306%.
With O=C(c1ccnnc1)N1C[C@H]2CCC[C@@H](OCc3cccnc3)[C@@H]2C1 the screen gave CoaBC: 7.492%.
With Cc1nn(C)c2cnn(CCCNS(=O)(=O)Cc3ccccc3)c12 the screen gave Toxoplasma: -30.76%; CoaBC: 0.7653%.
With CC(C)NC(=O)N1CC[C@@H](N(C)C)[C@@H]1Cc1ccncc1 the screen gave CoaBC: 5.499%.
With CCn1cc(N)c(-c2nnc3n2CCC3)n1 the screen gave Toxoplasma: 16.64%; CoaBC: -4.294%.
With Cc1noc(C)c1CN1CC2(CCN(C(=O)c3cccn3C)C2)CC1=O (stereo not shown) the screen gave Toxoplasma: -2.058%; CoaBC: 8.055%.
With NCC1CCN(c2nc(C3CCCC3)nc3c2CCNCC3)C1 (stereo not shown) the screen gave Toxoplasma: -4.648%; CoaBC: 2.657%.
With Cc1ccc(C(=O)NCCC(C)C)cc1NS(C)(=O)=O the screen gave Toxoplasma: -1.429%; CoaBC: 0.7353%.
With Cc1nc(CN2CCCN(CC(=O)N(C)CCC#N)CC2)no1 the screen gave Toxoplasma: 2.528%; CoaBC: -12.5%.
With CCn1cnnc1CNC(=O)N(C)Cc1ccc(F)c(F)c1 the screen gave Toxoplasma: 7.639%; CoaBC: 2.491%.
With Cc1ncsc1C(=O)N1CC(C)Sc2ccccc21 (stereo not shown) the screen gave Toxoplasma: -4.922%; CoaBC: 6.452%.
With O=C(CNC(Cn1cccn1)c1ccccc1)Nc1cnccn1 (stereo not shown) the screen gave Toxoplasma: 20.37%; CoaBC: 7.901%.
With Fc1ccc(CN2CCC3(CC2)CN(c2ccccn2)CCO3)cc1.O=C(O)C(F)(F)F.O=C(O)C(F)(F)F the screen gave Toxoplasma: 4.159%.
With CC(=O)N1CCCC(C(=O)NCCc2ccc(F)c(Br)c2)C1 (stereo not shown) the screen gave Toxoplasma: -4.558%; CoaBC: -2.384%.
With O=c1[nH]c(C2CCOC2)nc2cc(F)c(F)cc12 (stereo not shown) the screen gave Toxoplasma: 14.39%; CoaBC: 1.474%.
With CN1CC(C(=O)NCCOc2ccc3c(c2)OCO3)CC1=O (stereo not shown) the screen gave Toxoplasma: 2.517%; CoaBC: 3.448%.
With CN1CCCC2(CCN(c3cccc(C(F)(F)F)n3)C2)C1=O (stereo not shown) the screen gave Toxoplasma: 1.189%; CoaBC: 2.258%.
With Cc1csc(CNC(=O)NC2CCCc3c2cnn3CCO)n1 (stereo not shown) the screen gave Toxoplasma: 11.4%; CoaBC: 6.612%.

The last 2 entries again:

With CN1CCCC2(CCN(c3cccc(C(F)(F)F)n3)C2)C1=O (stereo not shown) the screen gave Toxoplasma: 1.189%; CoaBC: 2.258%.
With Cc1csc(CNC(=O)NC2CCCc3c2cnn3CCO)n1 (stereo not shown) the screen gave Toxoplasma: 11.4%; CoaBC: 6.612%.

Source: ChEMBL document CHEMBL3988442, “University of Dundee, Small-Polar-MMV Screening Library” (2021).